Source: publication PMC12693483, “A screen for synthetic genetic interactions with the Saccharomyces cerevisiae hrq1ΔN allele”

Biological target: T1, Hrq1 NTD del280-1077 (Saccharomyces cerevisiae) (UniProt Q05549)
T1 sequence (looked up): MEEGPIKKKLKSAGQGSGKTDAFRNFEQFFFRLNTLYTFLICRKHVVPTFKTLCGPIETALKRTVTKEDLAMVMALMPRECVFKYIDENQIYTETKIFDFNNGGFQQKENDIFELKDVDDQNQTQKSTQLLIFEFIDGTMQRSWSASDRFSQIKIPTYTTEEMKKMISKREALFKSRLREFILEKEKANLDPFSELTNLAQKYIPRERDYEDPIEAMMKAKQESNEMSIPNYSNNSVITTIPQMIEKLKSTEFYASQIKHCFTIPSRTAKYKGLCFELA
Test: EMSA
Settings: 10 nM protein, more binding than 10 nM Hrq1ΔN, weak ssDNA binding; EMSA: 0.1 nM labelled DNA, 25 mM Na-HEPES pH 8.0, 5% glycerol, 50 mM NaOAc pH 7.6, 7.5 mM MgOAc, 0.01% Tween-20, 30 min at 30 °C; recombinant protein; residues 1-279; label: 5'-32P; single-stranded DNA

“TTTTTTTTTTTTTTTTTTTTTTTTTTTTTT [poly(dT) 30mer]”: binds more weakly.

The comparison behind a weaker result is the experiment's own reference, which may not be listed here. Where a protein sequence is shown, tags need not be part of it.
